Assay results as given in PMC3969353.

System: E. coli HU (Escherichia coli)
Test: EMSA
Conditions: bend permutation, recombinant protein, label: 5'-32P

Sequence	binding result	binding result (slowest migrating complex)
CAGGGCAATCGCATTTGAACCGTTACACACTTATAGATCTAACGATTGCTACGCTCGGTTATCAAACAAGTACGAAT / ATTCGTACTTGTTTGATAACCGAGCGTAGCAATCGTTAGATCTATAAGTGTGTAACGGTTGTAATGCGATTCGCCTG [Loop 1]	binds	
CAGGGCAATCGCATTTGAACCGTTACACACTTATAGATCTAACGATTGCTACGCTCGGTTATCAAACAAGTACGAAT / ATTCGTACTTGTTTGATAACCGAGCGTAGCAATCGTTAGATCTATAAGTCAGTAACGGTTGTAATGCGATTGCCCTG [Loop 2]	binds	
CAGGGCAATCGCATTTGAACCGTTACACACTTATAGATCTAACGATTGCTACGCTCGGTTATCAAACAAGTACGAAT / ATTCGTACTTGTTTGATAACCGAGCGTAGCAAAGGTTAGATCTTAAAGTGTGTAACGGTTCAAATGCGATTGCCCTG [Loop (original, central)]		binds
CAGGGCAATCGCATTTGAACCGTTACACACTTATAGATCTAACGATTGCTACGCTCGGTTATCAAACAAGTACGAAT / ATTCGTACTTGTTTGTAAACCGAGCGATGCAATCGTTAGATCTATAAGTGTGTAACGGTTCAAATGCGATTGCCCTG [Loop 3]	binds	
CAGGGCAATCGCATTTGAACCGTTACACACTTATAGATCTAACGATTGCTACGCTCGGTTATCAAACAAGTACGAAT / ATTCCAACTTGTTTGTAAACCGAGCGTAGCAATCGTTAGATCTATAAGTGTGTAACGGTTCAAATGCGATTGCCCTG [Loop 4]	binds	

Construct, isoform or probe ends are uncertain for at least one entry. At least one verdict was read from the data and is not stated in words by the source.
